The star is where a group is joined. Palmitoyl = CCCCCCCCCCCCCCCC(=O)*; Boc = CC(C)(C)OC(=O)*
Tests used:
[1] = general procedure: Fmoc solid-phase peptide synthesis; Rink amide MBHA/AM resin; CTC-Cl resin (Barlos' resin); DIPCDI/HOBt; details: bis-TFA salt
[2] = general procedure: Fmoc solid-phase peptide synthesis; CTC-Cl resin; DIPCDI/HOBt; details: whole synthesis, scale 3.3 mmol, bis-TFA salt

Substance | step yield ([1]; coupling step) | step yield ([1]; late stage modification step) | also measured
Tert-butyl ((9R,12S,15S,18S)-9-((cyclopropylsulfonyl)carbamoyl)-12,15-dimethyl-3,11,14,17-tetraoxo-18-palmitamido-1-phenyl-2-oxa-4,10,13,16-tetraazadocosan -22-yl)carbamate | 73% |  | 
Palmitoyl-Lys(Boc)-Ala-Ala-Lys(Boc)-H |  | 26% | 
Palmitoyl-Lys(Boc)-Ala-Ala-Lys(Boc)-CH—OH—C═O—NH2 | 26% |  | 
Palmitoyl-Lys (Cbz)-Ala-Ala-5-bromo-1-BO2Pin-pentylamide | 35% |  | 
Palmitoyl-Lys(Boc)-Ala-Ala-Lys(Boc)-N(OMe)Me |  | 93% | 
Palmitoyl-Ala-trans-(O-pyridinyl) Hyp-Ala-Lys (Cbz) NH2 | 79% |  | 
Palmitoyl-K(Boc)AAK(Boc)-OH |  |  | crude mass [2]: 1.7 g; crude yield [2]: 60%
Palmitoyl-Lys (Cbz)-Ala-Ala-5-azido-1-BO2Pin-pentylamide |  | 91% | 
Palmitoyl-Lys-Ala-Ala-5-amine-1-BO2Pin-pentylamide |  | 95% | 
Palmitoyl-Lys(Boc)-Ala-Ala-Lys(Boc)-Oxd-Me | 24% |  | 
Palmitoyl-Lys(Boc)-Ala-Ala-Lys(Boc)-C═O—NH2 |  | 99% | 

Source: patent US20250059231A1 (priority 2021, published 2025)
